Results are given in words; binding and its absence hold for the method and conditions named.

Consider 1 substance from PMC10553838, “Functional and structural insights into the multi-step activation and catalytic mechanism of bacterial ExoY nucleotidyl cyclase toxins bound to actin-profilin” (PLOS Pathogens, 2023).

The experiment deals with Pa-ExoY (Exoenzyme Y of Pseudomonas aeruginosa), residues 20 to 378, wild type (Pseudomonas aeruginosa) (UniProt O85345). The experiment in a line: SEC; both purified.

In the case of “Pa-ExoY (Exoenzyme Y of Pseudomonas aeruginosa), residues 20 to 378, wild type (from UniProt O85345 20-378)”, the binding result is “no binding (tested: between 2 and 5 μM)”.
